This is one part of the list. The main result of the screen is listed elsewhere. These columns were measured beside it and carry no call. Compounds called inactive in the main read-out are mostly missing here. The note in brackets gives the kind of curve behind each potency; many fits are weak.
Assay: IkB Signaling
Conditions: ABC-DLBCL IkBa-CBG/CBR dual luciferase ratio (green luciferase fused to IkBa over red control in OCI-Ly3 lymphoma cells), 4 h
In short: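 In this assay, an IκBα–CBG68 fusion accumulates when IKK-driven degradation is blocked; native CBR normalizes for cell number. OCI-Ly3 cells were treated 4 h with compound and doxycycline, then green and red light read after Chroma-Glo addition.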

[1] = measured here: control luc red channel unless noted

## CCn1c(=O)c2cc(C(=O)Nc3cccc(C(F)(F)F)c3)sc2c2ccccc21
[1]
  AC50: 1.26 µM [falling, full curve]

## COc1ccc(NC(=O)c2c(NCc3ccc(C)o3)sc3c2CCCCC3)c(OC)c1
[1]
  AC50: 31.6 µM [falling, single point]

## Cc1nc2cc(NC(=O)NCCC3=CCCCC3)ccc2o1
[1]
  AC50: 20 µM [falling, partial curve]

## CCOC(=O)C1CCCN(C2CC(=O)N(c3cccc(C(F)(F)F)c3)C2=O)C1 (stereo not given)
[1]
  AC50: 31.6 µM [falling, partial curve]

## COc1ccc(-n2c(/C=C/c3cccc4ccccc34)nc3ccccc3c2=O)cc1OC
[1]
  AC50: 6.31 µM [falling, partial curve, poor fit]

## COc1ccc(N2C(N)=C(C#N)C(c3cccnc3)C3=C2CC(C)(C)CC3=O)cc1 (stereo not given)
[1]
  AC50: 39.8 µM [rising, single point] [measured here: IkB-luc green channel]

## CCn1cc(C(=O)NCCc2ccc(Cl)cc2)c(=O)c2cc(S(=O)(=O)N(C)C3CCCCC3)ccc21
[1]
  AC50: 12.6 µM [falling, partial curve]

## COc1ccc(Cn2c(C(=O)O)c(CNCc3ccc(OC)cc3OC)c3ccc(C)cc32)cc1
[1]
  AC50: 12.6 µM [falling, partial curve]

## CCc1ccc2oc(-c3cc(N=Cc4cccc(OC)c4O)ccc3O)nc2c1
[1]
  AC50: 31.6 µM [falling, single point]

## COc1ccc(CCCc2nnc(SCC(=O)Nc3cc(F)ccc3C)o2)cc1
[1]
  AC50: 25.1 µM [falling, partial curve]

## CCOc1ccc(CNC(=O)c2ccc3c(Cl)c4c(nc3c2)CCCC4)cc1
[1]
  AC50: 5.01 µM [falling, partial curve]

## CN(C(=O)CSc1nc2ccc(NC(=O)c3cccc(F)c3)cc2s1)c1ccccc1
[1]
  AC50: 12.6 µM [falling, partial curve]

## COc1cc(Cl)c(C)cc1NC(=O)CC1Oc2ccccc2NC1=O (stereo not given)
[1]
  AC50: 31.6 µM [falling, partial curve, poor fit]

## CCOC(=O)c1c(NC(C)=O)c2c3c(sc2n1Cc1c(C)cc(C)cc1C)CCCC3
[1]
  AC50: 39.8 µM [falling, single point]

## Cc1c(Cl)cccc1NC(=O)c1oc2ccc(S(=O)(=O)N3CCCCCC3)cc2c1C
[1]
  AC50: 10 µM [falling, single point]

## O=C(Nc1cccc(F)c1)c1ccc2oc(=O)n(Cc3ccccc3)c2c1
[1]
  AC50: 3.16 µM [falling, full curve, poor fit]

## CCN1CCN(c2nc(C)nc3c2sc(=S)n3C)CC1
[1]
  AC50: 3.16 µM [rising, full curve, poor fit]

## COc1cccc(OC)c1C(=O)Nc1ccc(-c2nc3ncccc3o2)cc1
[1]
  AC50: 5.01 µM [rising, partial curve]

## O=C(Nc1nc2ccccc2s1)C1CCCN1S(=O)(=O)c1ccc(Cl)cc1 (stereo not given)
[1]
  AC50: 15.8 µM [falling, partial curve]

## Cc1cccc(N(CC(=O)NCCc2ccccc2)S(=O)(=O)c2ccccc2)c1C
[1]
  AC50: 20 µM [falling, partial curve]

## COc1ccc(CCNC(=O)c2cc3c(=O)n4cccc(C)c4nc3n2C)cc1
[1]
  AC50: 12.6 µM [falling, partial curve, poor fit]

## COc1ccc2c(C)c(CCC(=O)NCc3cccc(Cl)c3)c(=O)oc2c1
[1]
  AC50: 31.6 µM [falling, single point]

## Cc1cccc(CSCCNC(=O)C2CCN(S(=O)(=O)Cc3ccccc3)CC2)c1
[1]
  AC50: 25.1 µM [falling, single point]

## CCCOC(=O)c1ccc(OCC(O)Cn2c(C)nc3ccccc32)cc1 (stereo not given)
[1]
  AC50: 15.8 µM [falling, partial curve]

## COc1ccc(NC(=O)CC2Oc3ccc(C)cc3NC2=O)cc1Cl (stereo not given)
[1]
  AC50: 3.98 µM [rising, full curve]

## O=C(c1cccs1)c1no[n+]([O-])c1C(=O)c1cccs1
Measured here: IkB-luc green channel
  AC50: 3.98 µM [rising, partial curve]
Measured here: control luc red channel
  AC50: 15.8 µM [falling, partial curve]

## COc1ccc(N(CC(O)Cn2nnc3ccccc32)S(=O)(=O)c2ccc(C)cc2)cc1 (stereo not given)
[1]
  AC50: 31.6 µM [falling, single point]

## Cc1ccc(-n2nc(C(=O)N3CCN(c4cccc(C(F)(F)F)c4)CC3)c(=O)n(C)c2=O)cc1
[1]
  AC50: 12.6 µM [falling, partial curve]

## Cc1ccc(CNc2ccc(-c3nc(C(C)C)no3)cc2[N+](=O)[O-])cc1
[1]
  AC50: 1.58 µM [rising, full curve]

## Cc1ccc(C)c(N2CCN(S(=O)(=O)c3ccc4c(c3)CCC(=O)N4)CC2)c1
[1]
  AC50: 15.8 µM [falling, partial curve]

## Cc1cc(C)c2nc(N3CCCC(C(=O)NCc4cccc(Cl)c4)C3)sc2c1 (stereo not given)
[1]
  AC50: 7.94 µM [falling, partial curve]

## CC(C)CN(CC(C)C)C(=O)C1CCCN(S(=O)(=O)c2ccc3c(c2)oc(=O)n3C)C1 (stereo not given)
[1]
  AC50: 15.8 µM [falling, partial curve]

## COc1cccc(NC(=O)c2nn(-c3ccc(C)cc3)c(=O)n(C)c2=O)c1
[1]
  AC50: 1.58 µM [falling, partial curve]

## CCOc1ccc(C(=O)Nc2cc(NC(=O)c3ccco3)ccc2OC)cc1Br
[1]
  AC50: 2 µM [rising, full curve]

## COc1ccc(-c2nc3cc(NC(=O)Cc4ccc(Cl)cc4)ccc3o2)cc1OC
[1]
  AC50: 25.1 µM [falling, single point]

## Cc1ccsc1CCN1C(=O)N(c2ccccc2)C(=O)C1CC(=O)Nc1ccc(F)cc1 (stereo not given)
[1]
  AC50: 25.1 µM [falling, single point]

## COc1ccc(CCC(=O)NCc2ccc3c(c2)CCN3C(=O)c2ccc(F)cc2)cc1
[1]
  AC50: 7.94 µM [rising, single point]

## CCOc1cccc2cc(-c3nnc(-c4ccccc4)o3)c(=O)oc12
[1]
  AC50: 0.0398 µM [falling, full curve]

## Cc1cccc(C)c1NC(=O)c1ccc2c(c1)N(Cc1cccc(Cl)c1)C(=O)c1ccccc1S2=O (stereo not given)
[1]
  AC50: 15.8 µM [falling, single point]

From PubChem BioAssay AID445 (National Center for Advancing Translational Sciences (NCATS), 2006)
